The target of the test is VASP (mouse (endogenous in NIH-Src)) (UniProt P70460). The test can be described thus: co-IP; endogenous proteins; NIH-Src cell lysates precipitated with anti-VASP antibody on protein A-agarose beads or control IgG; immunoblot; lysis in RIPA buffer or cell lysis buffer (which one is not told). On the technique in general: In western blotting, separated proteins are transferred to a membrane and probed.

The chains behind the UniProt entries cited, without tags or fusion partners.
UniProt P70460: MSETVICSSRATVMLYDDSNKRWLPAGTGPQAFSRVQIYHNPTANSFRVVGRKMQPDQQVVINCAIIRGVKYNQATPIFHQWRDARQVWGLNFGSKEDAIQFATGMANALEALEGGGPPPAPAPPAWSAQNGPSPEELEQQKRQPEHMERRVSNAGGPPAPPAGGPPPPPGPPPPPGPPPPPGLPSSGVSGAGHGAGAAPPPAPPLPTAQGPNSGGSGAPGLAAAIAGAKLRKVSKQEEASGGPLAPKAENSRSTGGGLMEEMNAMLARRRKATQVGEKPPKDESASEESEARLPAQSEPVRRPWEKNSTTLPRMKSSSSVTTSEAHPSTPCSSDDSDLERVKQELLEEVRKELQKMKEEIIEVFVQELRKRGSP
UniProt Q8BKX1: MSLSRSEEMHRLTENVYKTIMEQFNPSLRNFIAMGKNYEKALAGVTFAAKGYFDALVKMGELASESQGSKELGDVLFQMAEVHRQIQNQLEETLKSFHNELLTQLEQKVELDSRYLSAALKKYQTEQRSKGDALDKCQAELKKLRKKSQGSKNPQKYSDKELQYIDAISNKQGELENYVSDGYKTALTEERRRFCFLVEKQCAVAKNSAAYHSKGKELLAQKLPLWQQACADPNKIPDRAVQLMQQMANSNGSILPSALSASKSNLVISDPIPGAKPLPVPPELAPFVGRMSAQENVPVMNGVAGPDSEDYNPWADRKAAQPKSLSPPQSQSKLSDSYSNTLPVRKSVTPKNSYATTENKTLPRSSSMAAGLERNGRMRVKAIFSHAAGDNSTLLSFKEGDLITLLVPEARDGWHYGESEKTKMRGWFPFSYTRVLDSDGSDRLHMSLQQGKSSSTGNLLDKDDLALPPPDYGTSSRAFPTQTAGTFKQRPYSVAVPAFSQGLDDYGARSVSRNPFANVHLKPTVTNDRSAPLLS

Results are given in words; binding and its absence hold for the method and conditions named. In cells and extracts the contact can be indirect. Some binding calls cover weakened binding; strength is not graded here.

As for IRSp53 (from UniProt Q8BKX1 1-535), the binding entry is given as “binds”.

For the origin of these results see paper PMC3608619.
